Measured values: patent publication US20240400677A1
No constants are given. Whether binding was seen depends on the method and setting.

Protein sequences, listed by entry. Tags and fused reporters are not part of them. Lines headed by an entry give the natural chain unless they say otherwise; changes in a name come on top. Chains listed by the source or under a name are the forms on record and can include a tag or linker. Residues count along the entry.
human SIRPα V2-His monomer protein (P78324, form named): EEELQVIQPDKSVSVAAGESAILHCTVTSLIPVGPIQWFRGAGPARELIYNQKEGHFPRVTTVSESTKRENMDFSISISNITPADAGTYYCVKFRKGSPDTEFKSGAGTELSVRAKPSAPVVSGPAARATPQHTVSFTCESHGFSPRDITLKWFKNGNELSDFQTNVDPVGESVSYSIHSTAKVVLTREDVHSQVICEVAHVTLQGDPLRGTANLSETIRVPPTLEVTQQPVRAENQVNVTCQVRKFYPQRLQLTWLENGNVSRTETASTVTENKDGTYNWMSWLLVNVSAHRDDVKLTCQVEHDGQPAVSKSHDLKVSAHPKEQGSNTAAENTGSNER
UniProt O00241, residues 30-371: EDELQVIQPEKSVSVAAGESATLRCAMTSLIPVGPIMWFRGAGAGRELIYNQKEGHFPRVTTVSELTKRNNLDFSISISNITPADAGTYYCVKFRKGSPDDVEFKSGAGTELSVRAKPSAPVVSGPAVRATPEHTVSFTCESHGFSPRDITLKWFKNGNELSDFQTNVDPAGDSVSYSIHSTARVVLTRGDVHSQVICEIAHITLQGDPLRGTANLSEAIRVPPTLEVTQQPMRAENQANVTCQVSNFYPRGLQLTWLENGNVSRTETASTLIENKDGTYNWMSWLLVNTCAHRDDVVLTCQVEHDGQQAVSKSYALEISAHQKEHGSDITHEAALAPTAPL

B1: Antibody 43 (scFv, V domains shown)
VH: QVQLVQSGAEVKKPGASVKVSCKASGGTFTSYDINWVRQAPGQGLEWMGWISAYNGHTNYAQNLQGRVTMTRDTSTSTVYMELSSLRSEDTAVYYCAREDSSWYFDLWGRGTLVTVSS
VL: DIQMTQSPSSLSASVGDRVTITCRASQSISSWLAWYQQKPGKAPKLLIYDASNLETGVPSRFSGSGSGTDFTLTISSLQPEDFATYYCQQSFSTPPTFGQGTKVEIK
B2: Antibody 10 (scFv, V domains shown)
VH: QVQLVQSGAEVKKPGASVKVSCKASGGTFSNYDISWVRQAPGQGLEWMGMIDPSGGSTSYAQKFQGRVTMTRDTSTSTVYMELSSLRSEDTAVYYCARPYSSGWYYFDYWGQGTLVTVSS
VL: DIQMTQSPSSLSASVGDRVTITCQASQDIHNYLNWYQQKPGKAPKLLIYDASNLETGVPSRFSGSGSGTDFTLTISSLQPEDFATYYCQQSYNTPPTFGQGTRLEIK
B3: Antibody 47 (scFv, V domains shown)
VH: QVQLVQSGAEVKKPGASVKVSCKASGYTFTTYGISWVRQAPGQGLEWMGWMDPNSGSTGYAQKFQGRVTMTRDTSTSTVYMELSSLRSEDTAVYYCARGRGNSYYYYYMDVWGKGTTVTVSS
VL: DIQMTQSPSSLSASVGDRVTITCRASQRIGSYLNWYQQKPGKAPKLLIYGASNLQSGVPSRFSGSGSGTDFTLTISSLQPEDFATYYCQQANSFPFTFGPGTKVDIK
B4: Antibody 48 (scFv, V domains shown)
VH: QVQLVQSGAEVKKPGASVKVSCKASGYTFTSYYMHWVRQAPGQGLEWMGWMNPNSGNTGYAQKFQGRVTMTRDTSTSTVYMELSSLRSEDTAVYYCARDQMYSSYGMDVWGQGTTVTVSS
VL: DIQMTQSPSSLSASVGDRVTITCRASESITNWLAWYQQKPGKAPKLLIYKASSLESGVPSRFSGSGSGTDFTLTISSLQPEDFATYYCQQSYGTPYTFGQGTKVEIK
B5: Antibody 50 (scFv, V domains shown)
VH: QVQLVQSGAEVKKPGASVKVSCKASGYTFTGYYMHWVRQAPGQGLEWMGTINPSGGSTSYAQKFQGRVTMTRDTSTSTVYMELSSLRSEDTAVYYCVKGNGYYDLWGQGTLVTVSS
VL: DIQMTQSPSSLSASVGDRVTITCRASQSISSWLAWYQQKPGKAPKLLIYDTSNLQGGVPSRFSGSGSGTDFTLTISSLQPEDFATYYCQQYDSFPWTFGQGTKVEIK
B6: Antibody 51 (scFv, V domains shown)
VH: QVQLVQSGAEVKKPGASVKVSCKASGYTFTRYDINWVRQAPGQGLEWMGWMNPNSGNTGYAQKLQGRVTMTRDTSTSTVYMELSSLRSEDTAVYYCARERVGYCSSTSCLHPLDYWGQGTLVTVSS
VL: DIQMTQSPSSLSASVGDRVTITCRASQGIRNDLGWYQQKPGKAPKLLIYSASNLQSGVPSRFSGSGSGTDFTLTISSLQPEDFATYYCQQSYDVPLTFGGGTKVEIK
B7: Antibody 52 (scFv, V domains shown)
VH: QVQLVQSGAEVKKPGASVKVSCKASGYTFTSYDINWVRQAPGQGLEWMGWISGYNGNTNYAQKFQGRVTMTRDTSTSTVYMELSSLRSEDTAVYYCARSFDWLLLLDYWGQGTLVTVSS
VL: DIQMTQSPSSLSASVGDRVTITCRASQSISSWLAWYQQKPGKAPKLLIYDATTLESGVPSRFSGSGSGTDFTLTISSLQPEDFATYYCQQYDSYPWTFGQGTKLEIK
B8: Antibody 53 (scFv, V domains shown)
VH: QVQLVQSGAEVKKPGASVKVSCKASGHTFNNNYIHWVRQAPGQGLEWMGIINPSGGSTSYAQKFQGRVTMTRDTSTSTVYMELSSLRSEDTAVYYCARQIQDYGYYYYGMDVWGQGTTVTVSS
VL: EIVMTQSPATLSVSPGERATLSCRASQSVSKYLAWYQQKPGQAPRLLIYAISARAAGIPARFSGSGSGTEFTLTISSLQSEDFAVYYCQQYYSSPPTFGQGTKVEIK
B9: Antibody 9 (scFv, V domains shown)
VH: QVQLVQSGAEVKKPGASVKVSCKASGYSFSDYYMHWVRQAPGQGLEWMGWMSPNSGNTGYAQKFQGRVTMTRDTSTSTVYMELSSLRSEDTAVYYCARQREEYGHYYYGMDVWGQGTMVTVSS
VL: EIVMTQSPATLSVSPGERATLSCRASQSLGSTYLAWYQQKPGQAPRLLIYGASTRATGIPARFSGSGSGTEFTLTISSLQSEDFAVYYCQQYYSSPPTFGQGTKVEIK
B10: Antibody 13 (scFv, V domains shown)
VH: EVQLLESGGGLVQPGGSLRLSCAASGFTFSNSDMNWVRQAPGKGLEWVSYISSSGNTIYYADSVKGRFTISRDNSKNTLYLQMNSLRAEDTAVYYCARSNWNYPLDYYYMDVWGKGTTVTVSS
VL: DIVMTQSPLSLPVTPGEPASISCRSSQSLLHSNGYNYLDWYLQKPGQSPQLLIYAASSLQSGVPDRFSGSGSGTDFTLKISRVEAEDVGVYYCMQGTHWPPTFGQGTKVEIK
B11: Antibody 15 (scFv, V domains shown)
VH: QVQLVQSGAEVKKPGASVKVSCKASGYSFTSYGISWVRQAPGQGLEWMGWISPYNGNTNYAQKLQGRVTMTRDTSTSTVYMELSSLRSEDTAVYYCAREAYGDYGDYFDYWGQGTLVTVSS
VL: DIQMTQSPSSLSASVGDRVTITCRASQGVGDRSAWYQQKPGKAPKLLIYDASNLETGVPSRFSGSGSGTDFTLTISSLQPEDFATYYCQQADTFPYTFGQGTKLEIK
B12: Antibody 17 (scFv, V domains shown)
VH: QVQLVQSGAEVKKPGASVKVSCKASGYTFTRNYVHWVRQAPGQGLEWMGRINPNSGGTNTAQKFQGRVTMTRDTSTSTVYMELSSLRSEDTAVYYCARLGDVAVAASFDYWGQGTLVTVSS
VL: DIQMTQSPSSLSASVGDRVTITCRASQSISSYLNWYQQKPGKAPKLLIYDASSLESGVPSRFSGSGSGTDFTLTISSLQPEDFATYYCQQANSFPLTFGPGTKVDIK
B13: Antibody 12 (scFv, V domains shown)
VH: QVQLVQSGAEVKKPGASVKVSCKASGGTFGSYGINWVRQAPGQGLEWMGWISAYNGNTNYAQKLQGRVTMTRDTSTSTVYMELSSLRSEDTAVYYCARDGIDYGGNSGYDYWGQGTLVTVSS
VL: DIQMTQSPSSLSASVGDRVTITCRASQNIRNYLNWYQQKPGKAPKLLIYAASSLQGGVPSRFSGSGSGTDFTLTISSLQPEDFATYYCQQSYNGPYTFGQGTKVEIK
B14: Antibody 28 (scFv, V domains shown)
VH: QVQLVQSGAEVKKPGASVKVSCKASGYTFTSYNIHWVRQAPGQGLEWMGWISAYNGNTNYAQKLQGRVTMTRDTSTSTVYMELSSLRSEDTAVYYCALDGGQLGVAFDIWGQGTMVTVSS
VL: DIQMTQSPSSLSASVGDRVTITCRASQGISNWLAWYQQKPGKAPKLLIYDASNLDAGVPSRFSGSGSGTDFTLTISSLQPEDFATYYCQQANSLPLTFGGGTKVEIK
B15: Antibody 31 (scFv, V domains shown)
VH: QVQLVQSGAEVKKPGASVKVSCKASGGTFRSYAISWVRQAPGQGLEWMGWMNPNSGNTGYAQKFQGRVTMTRDTSTSTVYMELSSLRSEDTAVYYCARESVLKGGMDVWGQGTTVTVSS
VL: DIVMTQSPDSLAVSLGERATINCRSSQSLFHSSTNANNLAWYQQKPGQPPKLLIYWASTRESGVPDRFSGSGSGTDFTLTISSLQAEDVAVYYCQQYYITPLTFGQGTRLEIK
B16: Antibody 19 (scFv, V domains shown)
VH: QVQLVQSGAEVKKPGASVKVSCKASGYTFTAYYMHWVRQAPGQGLEWMGIINPSGGSTSYAQKFQGRVTMTRDTSTSTVYMELSSLRSEDTAVYYCARDSGWYAPGYYYGMDVWGQGTTVTVSS
VL: DIQMTQSPSSLSASVGDRVTITCRASESISHWLAWYQQKPGKAPKLLIYGASTLQSGVPSRFSGSGSGTDFTLTISSLQPEDFATYYCQQSYTPPLTFGGGTKVEIK
B17: Antibody 37 (scFv, V domains shown)
VH: QVQLVQSGAEVKKPGASVKVSCKASGYTLNNYDINWVRQAPGQGLEWMGWISGYNGNTNYAQKLQGRVTMTRDTSTSTVYMELSSLRSEDTAVYYCARVGSSWEENDQWGQGTLVTVSS
VL: DIQMTQSPSSLSASVGDRVTITCRASQSISRWLAWYQQKPGKAPKLLIYAASSLESGVPSRFSGSGSGTDFTLTISSLQPEDFATYYCQQTHSFPLTFGGGTKVEIK

How the values were obtained:
Test in all cases: BLI
[1] = biological target: cynomolgus monkey SIRPα-His monomer protein (cynomolgus monkey)
[2] = biological target: human SIRPα V2-His monomer protein (human) (UniProt P78324)
[3] = biological target: human SIRPβ1-His monomer protein (human) (UniProt O00241)

Binder | binding [1] | binding [2] | binding [3]
B1 | no binding (tested: <0.02 nm at 115 s) | no binding (tested: <0.02 nm at 115 s; 500 nM) | no binding (tested: <0.02 nm at 115 s; 500 nM)
B2 | no binding (tested: <0.02 nm at 115 s) | no binding (tested: <0.02 nm at 115 s; 500 nM) | no binding (tested: <0.02 nm at 115 s; 500 nM)
B3 | no binding (tested: <0.02 nm at 115 s) | no binding (tested: <0.02 nm at 115 s; 500 nM) | no binding (tested: <0.02 nm at 115 s; 500 nM)
B4 | no binding (tested: <0.02 nm at 115 s) | no binding (tested: <0.02 nm at 115 s; 500 nM) | no binding (tested: <0.02 nm at 115 s; 500 nM)
B5 | no binding (tested: <0.02 nm at 115 s) | – | no binding (tested: <0.02 nm at 115 s; 500 nM)
B6 | no binding (tested: <0.02 nm at 115 s) | no binding (tested: <0.02 nm at 115 s; 500 nM) | no binding (tested: <0.02 nm at 115 s; 500 nM)
B7 | no binding (tested: <0.02 nm at 115 s) | no binding (tested: <0.02 nm at 115 s; 500 nM) | no binding (tested: <0.02 nm at 115 s; 500 nM)
B8 | no binding (tested: <0.02 nm at 115 s) | no binding (tested: <0.02 nm at 115 s; 500 nM) | no binding (tested: <0.02 nm at 115 s; 500 nM)
B9 | no binding (tested: <0.02 nm at 115 s) | no binding (tested: <0.02 nm at 115 s; 500 nM) | no binding (tested: <0.02 nm at 115 s; 500 nM)
B10 | no binding (tested: <0.02 nm at 115 s) | no binding (tested: <0.02 nm at 115 s; 500 nM) | no binding (tested: <0.02 nm at 115 s; 500 nM)
B11 | no binding (tested: <0.02 nm at 115 s) | no binding (tested: <0.02 nm at 115 s; 500 nM) | no binding (tested: <0.02 nm at 115 s; 500 nM)
B12 | no binding (tested: <0.02 nm at 115 s) | no binding (tested: <0.02 nm at 115 s; 500 nM) | –
B13 | – | no binding (tested: <0.02 nm at 115 s; 500 nM) | no binding (tested: <0.02 nm at 115 s; 500 nM)
B14 | no binding (tested: <0.02 nm at 115 s) | – | –
B15 | no binding (tested: <0.02 nm at 115 s) | – | no binding (tested: <0.02 nm at 115 s; 500 nM)
B16 | – | no binding (tested: <0.02 nm at 115 s; 500 nM) | no binding (tested: <0.02 nm at 115 s; 500 nM)
B17 | – | no binding (tested: <0.02 nm at 115 s; 500 nM) | no binding (tested: <0.02 nm at 115 s; 500 nM)
